The supplement of paper PMC10849652
The list shows a part of the results.

By UniProt entry, the sequences of proteins in these tests, tags left out. Where a name states a change or a piece, a line headed by the entry shows the natural chain unless it says otherwise.
UniProt Q2TB90: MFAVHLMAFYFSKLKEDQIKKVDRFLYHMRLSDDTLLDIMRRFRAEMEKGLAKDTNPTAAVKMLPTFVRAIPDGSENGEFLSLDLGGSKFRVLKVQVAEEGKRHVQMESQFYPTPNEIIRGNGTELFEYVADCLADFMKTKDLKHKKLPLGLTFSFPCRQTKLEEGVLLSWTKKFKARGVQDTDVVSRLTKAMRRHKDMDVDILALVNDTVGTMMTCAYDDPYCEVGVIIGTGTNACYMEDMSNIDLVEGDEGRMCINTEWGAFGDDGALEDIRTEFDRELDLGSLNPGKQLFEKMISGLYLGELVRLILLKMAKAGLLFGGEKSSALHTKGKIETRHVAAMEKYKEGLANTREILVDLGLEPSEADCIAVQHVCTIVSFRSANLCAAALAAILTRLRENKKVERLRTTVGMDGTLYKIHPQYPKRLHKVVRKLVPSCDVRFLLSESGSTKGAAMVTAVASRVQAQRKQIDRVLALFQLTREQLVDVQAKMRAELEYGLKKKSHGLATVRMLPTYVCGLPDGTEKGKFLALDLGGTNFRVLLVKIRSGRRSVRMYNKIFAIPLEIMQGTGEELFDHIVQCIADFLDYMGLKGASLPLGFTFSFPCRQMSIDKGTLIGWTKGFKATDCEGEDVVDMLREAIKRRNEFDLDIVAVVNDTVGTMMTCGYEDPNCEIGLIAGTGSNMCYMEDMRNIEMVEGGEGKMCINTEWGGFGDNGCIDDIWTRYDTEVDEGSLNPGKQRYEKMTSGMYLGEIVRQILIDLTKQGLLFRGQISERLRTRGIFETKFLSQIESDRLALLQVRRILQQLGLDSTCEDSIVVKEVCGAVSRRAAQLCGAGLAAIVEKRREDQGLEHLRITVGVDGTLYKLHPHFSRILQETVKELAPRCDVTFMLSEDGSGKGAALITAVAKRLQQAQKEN
UniProt P35914: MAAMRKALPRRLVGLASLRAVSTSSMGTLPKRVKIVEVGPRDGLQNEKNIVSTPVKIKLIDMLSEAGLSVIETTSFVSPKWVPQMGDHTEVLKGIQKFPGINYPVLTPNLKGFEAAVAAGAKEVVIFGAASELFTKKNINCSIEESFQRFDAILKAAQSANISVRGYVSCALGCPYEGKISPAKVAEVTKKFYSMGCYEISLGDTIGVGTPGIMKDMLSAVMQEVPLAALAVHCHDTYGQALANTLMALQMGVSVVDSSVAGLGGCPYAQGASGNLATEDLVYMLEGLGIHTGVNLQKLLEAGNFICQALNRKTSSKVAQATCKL
UniProt Q92598: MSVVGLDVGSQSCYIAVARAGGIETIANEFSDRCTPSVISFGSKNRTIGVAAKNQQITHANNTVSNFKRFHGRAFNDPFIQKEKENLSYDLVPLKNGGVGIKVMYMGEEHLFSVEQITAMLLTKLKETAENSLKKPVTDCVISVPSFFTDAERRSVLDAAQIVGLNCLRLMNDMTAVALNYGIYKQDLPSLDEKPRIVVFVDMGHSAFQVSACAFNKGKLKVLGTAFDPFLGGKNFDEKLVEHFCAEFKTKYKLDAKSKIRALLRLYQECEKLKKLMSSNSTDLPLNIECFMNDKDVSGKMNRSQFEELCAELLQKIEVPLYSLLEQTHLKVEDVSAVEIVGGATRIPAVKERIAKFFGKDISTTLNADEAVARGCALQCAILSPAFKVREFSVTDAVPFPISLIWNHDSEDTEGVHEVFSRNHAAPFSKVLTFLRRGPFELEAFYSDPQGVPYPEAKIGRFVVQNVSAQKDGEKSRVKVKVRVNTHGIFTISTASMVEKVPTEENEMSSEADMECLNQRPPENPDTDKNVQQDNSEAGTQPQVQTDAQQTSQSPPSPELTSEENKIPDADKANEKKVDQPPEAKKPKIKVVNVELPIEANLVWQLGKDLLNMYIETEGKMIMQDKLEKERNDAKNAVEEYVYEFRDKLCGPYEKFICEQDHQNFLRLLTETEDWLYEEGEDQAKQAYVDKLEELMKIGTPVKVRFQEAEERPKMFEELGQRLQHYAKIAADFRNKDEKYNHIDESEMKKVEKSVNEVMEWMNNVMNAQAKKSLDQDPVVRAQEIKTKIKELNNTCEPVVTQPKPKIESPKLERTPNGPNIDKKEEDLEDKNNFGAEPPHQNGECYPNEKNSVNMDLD
UniProt Q96FZ2: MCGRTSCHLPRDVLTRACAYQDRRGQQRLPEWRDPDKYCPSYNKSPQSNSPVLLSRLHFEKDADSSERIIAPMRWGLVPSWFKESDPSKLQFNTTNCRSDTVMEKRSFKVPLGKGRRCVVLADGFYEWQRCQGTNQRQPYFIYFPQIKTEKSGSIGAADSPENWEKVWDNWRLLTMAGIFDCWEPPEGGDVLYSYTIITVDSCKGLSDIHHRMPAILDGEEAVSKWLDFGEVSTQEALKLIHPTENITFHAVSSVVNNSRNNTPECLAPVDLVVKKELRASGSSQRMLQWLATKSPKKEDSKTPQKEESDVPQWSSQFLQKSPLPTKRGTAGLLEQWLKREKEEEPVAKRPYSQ
UniProt P50747: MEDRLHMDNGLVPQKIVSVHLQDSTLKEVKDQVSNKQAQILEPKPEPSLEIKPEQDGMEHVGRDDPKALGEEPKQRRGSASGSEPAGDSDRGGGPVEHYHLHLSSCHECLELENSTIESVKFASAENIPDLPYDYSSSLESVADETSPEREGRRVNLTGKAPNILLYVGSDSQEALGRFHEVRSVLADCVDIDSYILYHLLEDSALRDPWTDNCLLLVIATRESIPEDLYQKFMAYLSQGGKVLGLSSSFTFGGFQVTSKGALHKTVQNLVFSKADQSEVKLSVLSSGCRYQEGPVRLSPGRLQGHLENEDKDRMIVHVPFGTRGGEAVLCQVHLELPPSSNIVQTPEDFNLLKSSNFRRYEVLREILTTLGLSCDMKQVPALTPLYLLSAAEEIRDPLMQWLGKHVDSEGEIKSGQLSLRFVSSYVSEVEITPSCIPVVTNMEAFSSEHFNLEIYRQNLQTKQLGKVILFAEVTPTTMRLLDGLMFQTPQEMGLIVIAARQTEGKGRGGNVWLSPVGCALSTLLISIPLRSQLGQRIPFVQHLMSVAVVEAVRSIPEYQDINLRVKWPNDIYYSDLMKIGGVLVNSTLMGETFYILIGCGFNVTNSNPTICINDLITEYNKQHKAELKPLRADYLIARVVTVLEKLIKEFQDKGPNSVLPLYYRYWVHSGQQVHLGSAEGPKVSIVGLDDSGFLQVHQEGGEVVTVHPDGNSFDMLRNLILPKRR
UniProt O14964, whole entry, looked up: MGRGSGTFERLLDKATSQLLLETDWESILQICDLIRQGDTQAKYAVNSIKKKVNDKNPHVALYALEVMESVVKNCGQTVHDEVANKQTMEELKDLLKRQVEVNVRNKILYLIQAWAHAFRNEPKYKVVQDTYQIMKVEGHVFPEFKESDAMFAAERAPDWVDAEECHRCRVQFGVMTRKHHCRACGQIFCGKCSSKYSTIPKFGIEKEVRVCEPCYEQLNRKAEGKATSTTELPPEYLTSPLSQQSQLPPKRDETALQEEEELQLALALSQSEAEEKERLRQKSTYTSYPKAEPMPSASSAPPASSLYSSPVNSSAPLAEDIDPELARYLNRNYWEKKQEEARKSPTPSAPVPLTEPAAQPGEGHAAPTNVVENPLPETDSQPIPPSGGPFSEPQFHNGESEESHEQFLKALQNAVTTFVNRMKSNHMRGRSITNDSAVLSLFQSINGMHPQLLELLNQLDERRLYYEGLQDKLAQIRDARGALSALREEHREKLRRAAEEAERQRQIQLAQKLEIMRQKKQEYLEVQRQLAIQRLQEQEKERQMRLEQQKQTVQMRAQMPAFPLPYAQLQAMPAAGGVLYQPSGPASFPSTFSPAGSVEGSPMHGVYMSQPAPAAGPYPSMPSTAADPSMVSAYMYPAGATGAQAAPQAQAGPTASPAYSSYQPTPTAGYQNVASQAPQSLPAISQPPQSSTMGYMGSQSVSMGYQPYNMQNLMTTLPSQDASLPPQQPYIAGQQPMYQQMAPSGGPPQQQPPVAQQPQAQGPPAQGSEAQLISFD
UniProt O43390: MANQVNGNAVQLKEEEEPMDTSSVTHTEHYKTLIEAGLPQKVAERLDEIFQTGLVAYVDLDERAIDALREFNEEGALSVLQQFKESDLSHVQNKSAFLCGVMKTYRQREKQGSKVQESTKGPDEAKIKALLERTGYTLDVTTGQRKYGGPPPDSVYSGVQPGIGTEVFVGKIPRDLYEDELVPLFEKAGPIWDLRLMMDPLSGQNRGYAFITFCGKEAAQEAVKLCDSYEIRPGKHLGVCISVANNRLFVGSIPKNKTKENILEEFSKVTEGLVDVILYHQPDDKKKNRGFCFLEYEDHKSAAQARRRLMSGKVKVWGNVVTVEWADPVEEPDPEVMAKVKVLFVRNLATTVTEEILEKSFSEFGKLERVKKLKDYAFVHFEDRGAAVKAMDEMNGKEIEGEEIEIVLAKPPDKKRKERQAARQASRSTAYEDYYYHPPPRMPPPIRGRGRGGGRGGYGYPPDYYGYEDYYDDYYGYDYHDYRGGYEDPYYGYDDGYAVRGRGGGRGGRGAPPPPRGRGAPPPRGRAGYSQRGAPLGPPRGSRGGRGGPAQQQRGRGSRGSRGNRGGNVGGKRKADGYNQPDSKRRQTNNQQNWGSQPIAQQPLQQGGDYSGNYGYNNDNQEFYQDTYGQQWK
UniProt P17482: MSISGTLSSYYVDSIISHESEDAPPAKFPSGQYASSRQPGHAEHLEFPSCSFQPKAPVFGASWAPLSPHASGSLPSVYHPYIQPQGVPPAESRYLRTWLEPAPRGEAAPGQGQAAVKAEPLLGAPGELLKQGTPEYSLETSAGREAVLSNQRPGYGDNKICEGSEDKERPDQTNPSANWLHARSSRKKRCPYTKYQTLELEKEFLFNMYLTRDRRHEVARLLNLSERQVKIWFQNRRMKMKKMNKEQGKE
UniProt Q9NWT6: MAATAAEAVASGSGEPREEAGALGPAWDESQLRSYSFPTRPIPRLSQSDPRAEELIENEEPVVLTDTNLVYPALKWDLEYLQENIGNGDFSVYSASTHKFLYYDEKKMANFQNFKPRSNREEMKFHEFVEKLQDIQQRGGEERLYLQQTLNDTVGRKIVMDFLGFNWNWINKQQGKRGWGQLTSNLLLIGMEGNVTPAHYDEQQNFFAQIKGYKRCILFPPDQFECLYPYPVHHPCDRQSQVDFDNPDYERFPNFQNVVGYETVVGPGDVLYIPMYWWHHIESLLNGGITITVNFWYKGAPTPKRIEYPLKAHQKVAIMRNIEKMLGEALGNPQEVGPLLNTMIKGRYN

Each target was assayed with c1cn2cc(-c3ccc4cn[nH]c4c3)nc(Nc3ccc(N4CCOCC4)cc3)c2n1 [entospletinib] (assay: log2 fold change, soluble protein after heating vs DMSO (PISA); higher = thermal stabilisation; K562 cells, 10 uM, 30 min; active = over 0.2 and 3.5 SD of the protein, either way, in both replicates (recomputed)).
In short: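 For each measurement, 10 μM compound was applied for 30 min to K562 cells at 2×10^6 cells/mL. Aliquots were heated for 3 min across 48°C-58°C, pooled, and extracted in PBS with 0.5% NP-40 at 4°C; the supernatant after 21,000xg for 90 min was soluble protein. This was quantified by TMTpro 16plex LC-MS/MS with channel sums equalised, and thermal stability was reported relative to control samples from duplicates, on a log2 fold-change scale.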

log2 fold change, inactive:
HKDC1 (UniProt Q2TB90) -0.158
HMGCL (UniProt P35914) 0.047
HSPH1 (UniProt Q92598) 0.001
HMCES (UniProt Q96FZ2) -0.031
HLCS (UniProt P50747) 0.042
HYOU1, A0A494C039 0.016
HSP90AA1 isoform 2 (UniProt P07900) 0.025
HGS (UniProt O14964) -0.002
HNRNPR isoform 2 (UniProt O43390) 0.047
HOXB9 (UniProt P17482) -0.028
HIF1AN (UniProt Q9NWT6) 0.05

2 records drawn at random from those above, as already listed:
log2 fold change, inactive:
HMGCL (UniProt P35914) 0.047
HLCS (UniProt P50747) 0.042
